# Measured values: publication PMC9791439
# Amino acid sequences for entries named in this document (tags omitted). A change or cut given only in a name is not applied to a line headed by its entry.
# UniProt Q38E63: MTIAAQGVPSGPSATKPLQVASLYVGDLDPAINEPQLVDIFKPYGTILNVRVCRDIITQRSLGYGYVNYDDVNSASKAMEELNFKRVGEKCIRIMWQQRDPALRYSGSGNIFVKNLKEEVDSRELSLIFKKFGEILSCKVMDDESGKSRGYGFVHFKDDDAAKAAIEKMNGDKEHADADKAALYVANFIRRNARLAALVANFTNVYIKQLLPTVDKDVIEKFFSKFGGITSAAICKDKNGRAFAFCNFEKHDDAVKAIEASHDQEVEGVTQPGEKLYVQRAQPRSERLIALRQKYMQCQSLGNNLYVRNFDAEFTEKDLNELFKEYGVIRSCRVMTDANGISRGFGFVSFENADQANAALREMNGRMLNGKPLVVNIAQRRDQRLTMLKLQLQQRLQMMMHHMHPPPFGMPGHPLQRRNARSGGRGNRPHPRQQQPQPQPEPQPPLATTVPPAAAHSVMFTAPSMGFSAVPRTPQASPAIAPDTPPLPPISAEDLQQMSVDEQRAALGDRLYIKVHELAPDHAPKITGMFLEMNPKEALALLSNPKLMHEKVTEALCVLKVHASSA
# UniProt Q57UX0: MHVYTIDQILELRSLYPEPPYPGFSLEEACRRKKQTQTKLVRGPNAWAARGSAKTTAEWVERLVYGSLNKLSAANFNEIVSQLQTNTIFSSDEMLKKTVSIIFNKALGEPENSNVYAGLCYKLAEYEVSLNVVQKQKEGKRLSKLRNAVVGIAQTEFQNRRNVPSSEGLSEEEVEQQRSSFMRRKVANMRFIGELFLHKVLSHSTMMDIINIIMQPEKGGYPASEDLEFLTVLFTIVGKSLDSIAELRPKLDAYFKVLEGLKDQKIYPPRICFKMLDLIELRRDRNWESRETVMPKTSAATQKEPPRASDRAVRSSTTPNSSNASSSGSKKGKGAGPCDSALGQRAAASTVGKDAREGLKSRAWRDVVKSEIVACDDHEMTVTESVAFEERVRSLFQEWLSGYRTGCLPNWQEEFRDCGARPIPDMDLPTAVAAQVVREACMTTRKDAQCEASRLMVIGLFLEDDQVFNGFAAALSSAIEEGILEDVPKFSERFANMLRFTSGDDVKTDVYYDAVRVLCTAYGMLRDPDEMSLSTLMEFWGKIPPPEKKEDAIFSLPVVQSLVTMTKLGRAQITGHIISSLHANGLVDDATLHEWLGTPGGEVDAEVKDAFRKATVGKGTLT
# UniProt Q382M8: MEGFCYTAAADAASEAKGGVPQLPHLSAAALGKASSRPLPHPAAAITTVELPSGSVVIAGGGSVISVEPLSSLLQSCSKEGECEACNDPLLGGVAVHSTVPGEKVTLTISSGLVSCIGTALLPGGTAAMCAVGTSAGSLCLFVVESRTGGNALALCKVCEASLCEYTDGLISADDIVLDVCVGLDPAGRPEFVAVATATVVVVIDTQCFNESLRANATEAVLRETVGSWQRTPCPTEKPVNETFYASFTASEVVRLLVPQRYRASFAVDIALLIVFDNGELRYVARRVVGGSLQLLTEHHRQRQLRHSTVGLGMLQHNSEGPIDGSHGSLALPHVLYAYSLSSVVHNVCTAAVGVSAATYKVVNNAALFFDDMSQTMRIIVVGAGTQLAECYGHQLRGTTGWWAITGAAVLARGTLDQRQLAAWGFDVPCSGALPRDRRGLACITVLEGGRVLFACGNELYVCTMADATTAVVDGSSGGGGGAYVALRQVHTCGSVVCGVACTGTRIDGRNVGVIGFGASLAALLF
# UniProt Q585M4: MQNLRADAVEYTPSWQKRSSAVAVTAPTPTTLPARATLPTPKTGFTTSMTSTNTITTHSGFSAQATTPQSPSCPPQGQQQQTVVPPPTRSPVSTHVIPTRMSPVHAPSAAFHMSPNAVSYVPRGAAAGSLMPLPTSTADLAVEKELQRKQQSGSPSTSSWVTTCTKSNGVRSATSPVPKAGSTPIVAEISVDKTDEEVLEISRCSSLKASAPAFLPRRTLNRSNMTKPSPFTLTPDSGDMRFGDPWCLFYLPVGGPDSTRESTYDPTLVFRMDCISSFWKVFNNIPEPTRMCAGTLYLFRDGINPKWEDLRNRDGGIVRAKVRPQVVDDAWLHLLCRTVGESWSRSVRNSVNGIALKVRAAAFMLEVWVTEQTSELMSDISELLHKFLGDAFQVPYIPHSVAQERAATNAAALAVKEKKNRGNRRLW
# These are yes or no findings as the source states them, for the method shown. In cells and extracts the contact can be indirect. A yes stands for co-enrichment or nearness to the bait. Other partners may have been found. For part of these data: A no says only that the protein was not detected with the bait.
# How the values were obtained:
# [1] = target: PABP1-TurboID (T. brucei) (UniProt Q38E63); assay: proximity labelling; BioID: bait fused C-terminally to TurboID-HA at the endogenous locus in procyclic T. brucei; steady-state biotinylation with the biotin of SDM-79 medium (827 nM); streptavidin Dynabeads, washes incl. 2% SDS, on-bead trypsin, LC-MS/MS, LFQ, triplicates against wt cells and an eYFP-TurboID control; cutoffs SigA (FDR 0.01) and SigB (FDR 0.05)
# [2] = target: NUP158 endogenously tagged with eYFP at the C terminus (T. brucei) (UniProt Q387F2); assay: affinity purification with mass spectrometry; cryomill affinity capture of NUP158-eYFP; buffer 3 (20 mM Hepes pH 7.4, 250 mM NaCl, 0.5% CHAPS); GFP-Trap magnetic anti-GFP nanobody beads, four washes, on-bead trypsin, triplicate LC-MS/MS; cutoffs SigA/SigB
# [3] = target: NUP158-TurboID (T. brucei) (UniProt Q387F2); assay: proximity labelling; BioID: bait fused C-terminally to TurboID-HA at the endogenous locus in procyclic T. brucei; steady-state biotinylation with the biotin of SDM-79 medium (827 nM); streptavidin Dynabeads, washes incl. 2% SDS, on-bead trypsin, LC-MS/MS, LFQ, triplicates against wt cells and an eYFP-TurboID control; cutoffs SigA (FDR 0.01) and SigB (FDR 0.05)
# [4] = target: MEX67 TurboID (T. brucei); assay: as above
# [5] = target: C-terminally GFP-tagged MEX67 (T. brucei); assay: affinity purification with mass spectrometry; cryomill affinity capture of MEX67-GFP with anti-GFP nanobody; data of ref. 11 reanalysed here for three extraction conditions (buffer 1: 20 mM Hepes pH 7.4, 250 mM NaCl, 0.5% Triton; buffers 2A and 2B with sodium citrate and 0.5% Tween-20) against a control without GFP tag; confidence A: >2-fold in all three, confidence B: >2-fold in at least one
molecule,measurement,setting,value
eIF4G3 (from UniProt Q57UX0),binding,[1],binds
Tb927.11.13080 (from UniProt Q382M8),binding,[2],binds
same,binding,[3],binds
eIF4E4 (from UniProt Q585M4),binding,[1],binds
"exportin-1 (XPO1) (protein, UniProt Q7Z2C1 1-1033) MEDILDFSKPVDVQRFDQVVQYLSTGSPQEIVRAQEVLTAFKERPDSFLRVGDLLTKSVNLTTRFFALQVLEDAILHRWNTFTAEQCQEIRNFVVNMIVGECVSFNQIRSRRALLMKMNSALVSIAKREWPVRWPTFIKDVCSSAGPDEPLVENNLNILRMVGEEIFEFSEKTLTTRWLKRKKEALQSDFQAILQLCLSILSTSDEALLKTNLECLEKYLSWVEPASVFNEELLKYLAGLIARKSAVSRCAVRCLTVACSVETDHGSVGDAQAQVMVRVFRTILDNIMNLLPTNHSSVEARIVQFSNMEGSVDAGFVGDLNLLLVAFLKHYTRNIMYDDLLLISANQLIVGMSHINDKELFKSCVDYWWWLGEKMVRSASPTPLHRKLALVLSNVRFTLIKKMARPEEVIIVVEDGEVRRVHMKDVEELQLYKLMRETLVFLTYLDPQDMQAIMTKIVMKLEDLSEWSWHNCNTLSWAVGAISVALTEEQESSLFVVIVRGLLDLCSKLQGKENRAVVASGIMFVVGQYPRFLRAHQPFFRAVVKKVIEFMCDLFPGVQEMAVDTLLKVASQVPDQFVCVKNNGISLAEETAKRWTEITSLLKPQHMHTCFVAAGWMVKGEKPERQPSLLGMFLQDANDSFRIIVERAASKGPAFGEDFSGMGELIHILRVFSSIASSCGTSFVNEMGIIIYDLQGLYRTFFSAQTALVADHGTDAMERQEARYLRLAKREILRIFECFVDNTEECDFVATNCMPSILTTVLEDYRDSLPIVKEAGALALVTACVNKLGTRLAGDCAAILDHTSDTTISMICANAEDFPEFRVNLFKLLHALNTRCFSNFLSYASTKGDVINGMLWVIKHTDFAIMETGLKTLDAFLENVSRSELLQPFYDAFMQQIFVEVLVSAMDSLHAAGFELHCSILIKLFTVSSMFPVDLPKLGRNDIESFLCENLSTIATLTPVLIKQFIAGAYEKYGDPVEFRRSFADFLIEMQVWGAEEENRLQQEEEQRRREEDIPGFAALSVKGPPPTPSFYP",binding,[4],binds
"exosome subunit RRP6 (protein, UniProt Q95Z10 1-703) MSGSLPQTKDLVNGAFTLVKEYTKLTADLAEEDYDYHMAFPAFRHQITRHSEAVVSLMDKFCQLLPAKRRVTLSSTGGKLTDPQRAAVMEAADSLLENVDGLLDELKGRRLSAKDQLSVKFGSELQGVVPSSSYSVFNAAGVSVLRPQLTFEHPVDNSPTPFRPVYYDEKGVRHVGEPGVHPFAERIKAVSVPSEQLLLKTETPYLSLVTCPLTFVDTVEDLEALVAVLLNETEIAVDLEHHDFYSYQGFTCLMQISTRTQDFIVDCLKVRANMYLMAPVFLQPNIVKVFHGAREDVRWLQKDFGLYIVNLFDTSIALQNLHMPHSLAFAVDHFCQVKLNKKYQTADWRVRPIPAEMVSYAQQDTHFLLYVYDRLKQLLLNCEARASVGNMLLHVFQESRLLSLERYEKPHLDPDVTYKQALGRSLGGLSSPQLQVAREIFNWRDMAAREADDSPSAVMHISCVLSIATKLPTSANEVLKCCSPVSVAVRTNVMKLLQIVKDAIGSADSLKDGANGDVKPKPLPNVGVALRYMGVHRSMTGTLPSIEQRADPAFTVEDAHVVVRTEPSAWFETMRNVAAILRRKPYYPIALPGHDVVTRMSAVKRAREVEEMKVKGEGEEEEKRVHVDAEEPTVERENSSERGEGMAGPCLQEGLEVKDEVEEIDVPTQKPLELKEGAISLHQQYGTGSANRKKARLGKKNKL",binding,[4],binds
"cap guanylyltransferase-methyltransferase 1 (CGM1) (protein, UniProt Q57V03 1-1050) MESTSSLSDLHKYAERRFGRSLLIPVDEEFVKAVHPPVPSEASEVAPAVDFVEAYRNLVSRNLQRKRTANNAPTSPASSGVPKFIYAHAAEAVVGTRVGEFMGPLCSPLRKSHASMLRSAPYFVTEKSDGTRVVLVSLIAPLGPSWSIEDKNGGDVLLKHVGRLDDVVALEEARQQLCQENTAQVGDLHQKIHLSFGHFAVERWHEKSSYGTVELFALRCCENGSSSSQGGGDVIRAERLIGKRHMAYCFDRSMDYAYLLLEEHAVPSLHSFVVDAELMVPIQKGSARLLLGCFDVFRYVIVGESAPRDVVLTRAHTSARHAALRKDIIEPMEEFQRGTVGVPLLRIFAKEMFPLNKFGDCVLRLRCGESANHIGGVVYLYDGPYGWTKSDGFIFTPEKFDILQGASKTQLKWKWPSMLSVDWSLTAFEGQNNFFVVDSFFRKKRFGHQPDSCGHVRLSSKMSLLNPFSLPIPTRGSVVAECVFDREQKCWSIERLRNDKAEANSIVTIISVMESLVEDITLSTLFDLIGLNDTPLPSEKVHELESAADMVNRGGERGNTAAIQDVEEKHEKKRCQFTLRATQLQAQGEHEIHLYWAVRLPSEKAHVPCIHCKVSECTGFGFACPAEDPTSRLREYLYIALANAGGSCAWSDFTVEAVFNGGTGRWNIASMQPNGDNKRSTCVGVIHHLQWLLQRGVDSASPESTETPERVIPLHLQGVERPAVLQVEQVNAHYACKTKELSTGKNRSILRHYNNWIKGVLISTSVSYLRSNNKGGEFDNDGMVVADLCSGRGGDLHKWRAHQPKLLFMTDCCLEAVAEAAARYSITKGLSIKVVPHDKNPPGIRAQFCVLDVFDEKGSLVTKLEEFLKQCHDGGKLDVVSCQFSIHYGCSNEERVRVFLSAVSSTLKSGGIFIGTTVSDTELLRRLRQYGTTFGNGIYTVRFPTDAVPNDSFGVEYSVSFESSVSEMPEYLVPWNRFVNLCGAYNLQLVESFGFVEYGDMHYNSALGQELRDASMNGGRRDSDGHLRLRLSPDEAEAAGLFRTFLFVKI",binding,[4],binds
"KMP11 (protein, UniProt P69301 1-92) MATTYEEFAAKLDRLDAEFAKKMEEQNKRFFADKPDEATLSPEMKEHYEKFEKMIQEHTDKFNKKMREHSEHFKAKFAELLEQQKNAQFPGK",binding,[5],no binding
same,binding,[4],no binding
